Laboratory results: PubChem BioAssay AID1259280 (Sanger Institute, 2017)
Purpose: 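Kinome siRNA screen for partners that synergise with BYL719, cetuximab or trametinib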 (primary screen). Cells: human SNU407 colorectal cancer cells. Knock-down reagent: siRNA pool against human genes. Challenge: anchor drugs BYL719 at 1 µM, cetuximab at 5 µg/ml or trametinib at 10 nM, or DMSO vehicle alone; exposure time not given. Measurement: 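Viability per well scaled to a non-targeting pool and averaged over replicates, with a robust z-score from controls and a synergy score per anchor drug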. Direction: viability z-score, no drug and viability vs control, no drug: higher = more cells survive the knock-down; synergy with trametinib and synergy with BYL719 and synergy with cetuximab: higher = stronger synergy of knock-down with drug. Hit rule: 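a knock-down counts as essential when its robust viability z-score without drug is below -3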. Meaning of the calls: active = essential (knock-down alone kills cells); inactive = no change without drug.
This is a random part of 794 deposited reagents. Over the whole deposit, 12 (1.5%) got an active call. 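Calls cover knock-down without drug only; synergy scores stand apart, values above 0.15 being treated as synergy.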 A number with no mark means an inactive call. Viability is capped at 1. The record does not give: the amount of reagent, the time to read-out.

The first 6 records, ahead of the listing:
| target | viability z-score, no drug | viability vs control, no drug (fraction of control) | synergy with trametinib | synergy with BYL719 | synergy with cetuximab |
| --- | --- | --- | --- | --- | --- |
| ULK2 (unc-51 like autophagy activating kinase 2) | -0.307 | 0.908 | 0.00381 | -0.0218 | 0.00508 |
| SMG1 | -0.197 | 0.916 | 0.0174 | 0.0701 | 0.124 |
| ELF3 (E74 like ETS transcription factor 3) | 0.901 | 1 | 0.022 | -0.0224 | -0.0886 |
| SOS2 (SOS Ras/Rho guanine nucleotide exchange factor 2) | -1.02 | 0.853 | 0.0307 | -0.0218 | -0.149 |
| STK36 (serine/threonine kinase 36) | 0.901 | 1 | -0.0942 | 0.0484 | 0.0495 |
| CHUK | 0.901 | 1 | -0.092 | -0.00793 | 0.0768 |

The list itself, from the first entry:
| target | viability z-score, no drug | viability vs control, no drug (fraction of control) | synergy with trametinib | synergy with BYL719 | synergy with cetuximab |
| --- | --- | --- | --- | --- | --- |
| ULK2 (unc-51 like autophagy activating kinase 2) | -0.307 | 0.908 | 0.00381 | -0.0218 | 0.00508 |
| SMG1 | -0.197 | 0.916 | 0.0174 | 0.0701 | 0.124 |
| ELF3 (E74 like ETS transcription factor 3) | 0.901 | 1 | 0.022 | -0.0224 | -0.0886 |
| SOS2 (SOS Ras/Rho guanine nucleotide exchange factor 2) | -1.02 | 0.853 | 0.0307 | -0.0218 | -0.149 |
| STK36 (serine/threonine kinase 36) | 0.901 | 1 | -0.0942 | 0.0484 | 0.0495 |
| CHUK | 0.901 | 1 | -0.092 | -0.00793 | 0.0768 |
| SRPK1 (SRSF protein kinase 1) | 0.554 | 0.974 | -0.0294 | 0.0389 | -0.0326 |
| MAPK13 (mitogen-activated protein kinase 13) | -0.71 | 0.877 | -0.0128 | 0.0098 | -0.0334 |
| MAPK4 (mitogen-activated protein kinase 4) | 0.298 | 0.954 | 0.119 | -0.0468 | -0.0014 |
| MAP4K4 (mitogen-activated protein kinase kinase kinase kinase 4) | 0.0808 | 0.937 | -0.0296 | -0.0578 | -0.0496 |
| PAK6 (p21 (RAC1) activated kinase 6) | 0.592 | 0.976 | 0.0578 | -0.00599 | -0.0577 |
| BMPR1A (bone morphogenetic protein receptor type 1A) | -0.785 | 0.871 | -0.116 | -0.0315 | -0.0599 |
| MAP2K5 (mitogen-activated protein kinase kinase 5) | 0.838 | 0.995 | 0.0558 | 0.0856 | 0.0452 |
| MINK1 (misshapen like kinase 1) | -0.727 | 0.876 | -0.0484 | 0.112 | 0.00262 |
| PI4K2A (phosphatidylinositol 4-kinase type 2 alpha) | 0.901 | 1 | 0.0353 | 0.0316 | 0.0272 |
| RPS6KA4 (ribosomal protein S6 kinase A4) | 0.341 | 0.957 | -0.0271 | 0.0394 | -0.119 |
| ERN2 (endoplasmic reticulum to nucleus signaling 2) | 0.901 | 1 | 0.0101 | -0.0777 | -0.0532 |
| CAMK1 (calcium/calmodulin dependent protein kinase I) | 0.901 | 1 | 0.102 | 0.0661 | 0.0547 |
| EPHA2 (EPH receptor A2) | 0.758 | 0.989 | -0.05 | -0.00807 | -0.0128 |
| COASY (Coenzyme A synthase) | -2.13 | 0.768 | -0.0521 | -0.00996 | -0.0538 |
| GALK1 (galactokinase 1) | 0.156 | 0.943 | 0.0452 | -0.0264 | 0.0198 |
| NR4A2 (nuclear receptor subfamily 4 group A member 2) | -1.65 | 0.805 | -0.036 | 0.00442 | -0.091 |
| TBCK (TBC1 domain containing kinase) | 0.00452 | 0.932 | -0.0515 | -0.0093 | -0.0828 |
| TEX14 (testis expressed 14, intercellular bridge forming factor) | 0.901 | 1 | -0.0175 | -0.0238 | -0.0154 |
| MAPKAPK2 (MAPK activated protein kinase 2) | 0.901 | 1 | -0.0497 | 0.0595 | 0.0606 |
| RIOK2 (RIO kinase 2) | -0.972 | 0.857 | 0.0296 | 0.0759 | -0.0645 |
| JAK3 (Janus kinase 3) | 0.901 | 1 | -0.0356 | -0.00441 | -0.0886 |
| CSNK1E (casein kinase 1 epsilon) | -2.6 | 0.733 | 0.0104 | 0.0216 | -0.0873 |
| ROR1 (ROR family WNT receptor 1) | 0.16 | 0.943 | -0.0183 | -0.0383 | -0.0742 |
| PDGFRL (platelet derived growth factor receptor like) | 0.0122 | 0.932 | -0.158 | -0.0385 | -0.107 |
| TAB1 (TGF-beta activated kinase 1 (MAP3K7) binding protein 1) | 0.901 | 1 | -0.0207 | 0.0399 | 0.0199 |
| CDC73 (cell division cycle 73) | -0.204 | 0.916 | -0.0363 | 0.017 | -0.0461 |
| PHKG2 (phosphorylase kinase catalytic subunit gamma 2) | 0.833 | 0.995 | 0.0332 | 0.0469 | -0.00189 |
| STK33 (serine/threonine kinase 33) | 0.774 | 0.99 | -0.0148 | -0.0216 | -0.0152 |
| PFKFB2 (6-phosphofructo-2-kinase/fructose-2,6-biphosphatase 2) | 0.901 | 1 | 0.0456 | 0.0814 | 0.0775 |
| RET (ret proto-oncogene) | 0.282 | 0.953 | 0.0468 | 0.0566 | 0.0235 |
| CHEK2 (checkpoint kinase 2) | 0.901 | 1 | -0.0711 | 0.0837 | 0.0712 |
| PGK2 (phosphoglycerate kinase 2) | 0.901 | 1 | 0.0184 | 0.0878 | 0.137 |
| CDK9 (cyclin dependent kinase 9) | 0.901 | 1 | -0.0495 | 0.0627 | 0.0492 |
| CLK2 (CDC like kinase 2) | 0.901 | 1 | -0.0837 | -0.0319 | -0.0886 |
| AMHR2 (anti-Mullerian hormone receptor type 2) | 0.66 | 0.982 | 0.0436 | 0.0508 | 0.0138 |
| CDK18 (cyclin dependent kinase 18) | -1.68 | 0.803 | -0.0814 | -0.126 | -0.109 |
| UHMK1 (U2AF homology motif kinase 1) | 0.731 | 0.987 | 0.0789 | -0.00255 | 0.0677 |
| DSTYK (dual serine/threonine and tyrosine protein kinase) | 0.623 | 0.979 | -0.0356 | 0.1 | -0.027 |
| TGFBR1 (transforming growth factor beta receptor 1) | 0.901 | 1 | 0.128 | 0.0551 | -0.0879 |
| PLK3 (polo like kinase 3) | 0.0419 | 0.934 | 0.0133 | 0.101 | 0.1 |
| STK38L (serine/threonine kinase 38 like) | -1.12 | 0.846 | -0.00904 | -0.0435 | -0.105 |
| TAOK2 (TAO kinase 2) | 0.901 | 1 | -0.131 | -0.12 | -0.000177 |
| POLR2B (RNA polymerase II subunit B) | -3.5 (active) | 0.664 | -0.0652 | -0.0276 | -0.0305 |
| EPHB4 (EPH receptor B4) | -1.77 | 0.796 | -0.03 | -0.1 | -0.146 |
